In PMC7784271:
These are yes or no findings as the source states them, for the method shown. In cells and extracts the contact can be indirect. Some binding calls cover weakened binding; strength is not graded here.

By UniProt entry, the sequences of proteins in these tests, tags left out. Residues count along the entry.
UniProt P48356, residues 22-1162: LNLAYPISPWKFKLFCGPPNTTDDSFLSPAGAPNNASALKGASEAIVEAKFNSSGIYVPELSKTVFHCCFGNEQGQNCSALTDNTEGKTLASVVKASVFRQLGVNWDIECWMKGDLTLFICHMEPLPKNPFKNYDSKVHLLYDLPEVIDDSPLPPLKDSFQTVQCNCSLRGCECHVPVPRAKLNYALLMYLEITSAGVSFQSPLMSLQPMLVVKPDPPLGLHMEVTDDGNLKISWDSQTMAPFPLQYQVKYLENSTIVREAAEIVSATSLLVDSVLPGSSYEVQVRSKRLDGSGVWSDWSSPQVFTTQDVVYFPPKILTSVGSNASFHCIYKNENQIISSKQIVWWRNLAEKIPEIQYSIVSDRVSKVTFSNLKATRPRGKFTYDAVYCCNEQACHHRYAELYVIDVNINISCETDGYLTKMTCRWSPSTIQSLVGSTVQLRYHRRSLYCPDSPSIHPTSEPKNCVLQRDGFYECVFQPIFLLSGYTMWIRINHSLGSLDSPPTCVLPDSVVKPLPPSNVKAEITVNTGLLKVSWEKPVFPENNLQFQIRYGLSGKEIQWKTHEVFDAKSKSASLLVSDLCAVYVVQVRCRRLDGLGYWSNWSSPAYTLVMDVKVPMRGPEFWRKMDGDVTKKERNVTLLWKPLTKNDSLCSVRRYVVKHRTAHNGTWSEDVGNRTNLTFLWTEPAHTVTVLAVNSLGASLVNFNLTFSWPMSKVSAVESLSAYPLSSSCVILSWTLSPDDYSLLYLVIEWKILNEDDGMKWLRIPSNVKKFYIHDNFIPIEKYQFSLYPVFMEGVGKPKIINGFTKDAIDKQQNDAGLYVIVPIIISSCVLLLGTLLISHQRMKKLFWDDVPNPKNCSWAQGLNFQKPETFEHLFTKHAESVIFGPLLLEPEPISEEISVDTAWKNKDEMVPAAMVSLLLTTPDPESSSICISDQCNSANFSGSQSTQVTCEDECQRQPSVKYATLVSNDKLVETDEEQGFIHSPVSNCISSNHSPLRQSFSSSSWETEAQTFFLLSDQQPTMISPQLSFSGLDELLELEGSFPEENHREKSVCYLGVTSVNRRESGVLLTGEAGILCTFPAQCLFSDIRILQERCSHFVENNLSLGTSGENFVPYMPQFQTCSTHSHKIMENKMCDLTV

Target: T1, Annexin A7 (ANXA7) (mouse (endogenous in Hca-F)) (UniProt Q07076)
T1 sequence: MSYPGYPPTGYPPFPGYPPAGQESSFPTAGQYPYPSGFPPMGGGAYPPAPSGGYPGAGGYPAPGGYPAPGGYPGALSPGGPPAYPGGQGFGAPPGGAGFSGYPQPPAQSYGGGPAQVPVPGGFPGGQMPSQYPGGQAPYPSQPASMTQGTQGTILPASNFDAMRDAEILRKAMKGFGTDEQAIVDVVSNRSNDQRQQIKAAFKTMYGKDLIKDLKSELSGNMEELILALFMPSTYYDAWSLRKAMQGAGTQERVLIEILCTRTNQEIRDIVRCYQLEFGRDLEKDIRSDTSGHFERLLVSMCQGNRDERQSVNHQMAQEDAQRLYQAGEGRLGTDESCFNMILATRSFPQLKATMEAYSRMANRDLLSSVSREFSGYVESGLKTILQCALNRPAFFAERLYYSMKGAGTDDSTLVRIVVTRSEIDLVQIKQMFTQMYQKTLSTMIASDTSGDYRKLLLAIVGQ
Assay: co-IP; Hca-F cell lysate incubated overnight at 4 °C with primary antibody, immune complexes captured on Protein A/G agarose (Proteintech IP Kit KIP-1), eluates immunoblotted

Leptin Receptor (LEPR) (from UniProt P48356 22-1162)
binding: binds
